According to PubChem BioAssay AID493014 (National Center for Advancing Translational Sciences (NCATS), 2011):
The other results are listed elsewhere or left out. Shown are side measurements of this screen, not its main read-out; they come without a call. The list favours compounds with an active or inconclusive main result. Words in brackets tell the shape of the fitted curve; partial curves, single points and poor fits give uncertain potencies.

Assay: qHTS Assay to Find Inhibitors of Chronic Active B-Cell Receptor Signaling
Details: ABC-DLBCL IkBa-CBG/CBR reporter, luminescence ratio (green luciferase fused to IkBa over red control in TMD8 lymphoma cells), 4 h
Procedure, shortened: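 TMD8 ABC-DLBCL cells carrying doxycycline-inducible green luciferase fused to IkappaBalpha plus unfused red luciferase were exposed to compounds (up to 46 uM) for 4 hrs at 37C. Activity came from the overlap-corrected green/red luminescence ratio.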

[1] = measured here: CBR red luminescence, cell number
[2] = measured here: IkBa-CBG green luminescence

Row | SMILES | AC50 [1] | AC50 [2]
1 | Cc1ccccc1N1C(S)=C(C#N)C(=O)NC12CCCCC2 | 18.4 µM [rising, single point] | –
2 | CSCC(C)N1CCC(n2nccc2NC(=O)c2ccc3c(c2)OCO3)CC1 (stereo not given) | 2.82 µM [rising, partial curve, poor fit] | –
3 | C=CCN1C(=O)CSc2ccc(C(=O)NCCC3=CCCCC3)cc21 | 2.59 µM [rising, partial curve] | –
4 | CCC(CC)C(=O)Nc1cc(C(=O)NCCc2ccccc2)ccc1Cl | 3.16 µM [rising, single point] | –
5 | Cc1cccc(NC(=O)C2COc3ccccc3O2)n1 (stereo not given) | 0.562 µM [rising, full curve, poor fit] | –
6 | Cc1ccc(-c2nn(-c3ccccc3)cc2/C=N/NS(=O)(=O)c2ccccc2)cc1 | 6.31 µM [rising, partial curve, poor fit] | –
7 | COC(=O)c1cccc(NC(=O)CSc2nnc(C)o2)c1 | 8.91 µM [falling, partial curve, poor fit] | –
8 | COc1ccc(C(CC(=O)O)NC(=O)OC(C)(C)C)cc1 (stereo not given) | 29.1 µM [rising, single point] | –
9 | Cc1ccc(NC(=O)CCn2c(=O)[nH]c3ccsc3c2=O)cc1F | 5.62 µM [falling, partial curve, poor fit] | –
10 | C/C(CC(=O)Nc1ccccn1)=N\NC(=O)C(=O)Nc1cccc(C)c1 | 11.2 µM [falling, partial curve] | –
11 | O=C(Nc1ccccc1Cl)Nc1cccnc1Cl | 3.16 µM [falling, full curve] | –
12 | C/C(=N\NC(=O)c1sccc1-n1cccc1)c1cccs1 | 8.91 µM [rising, partial curve] | –
13 | Cc1cc(C)n2[nH]c(=O)c(N=Nc3ccccc3)c2n1 | 1.84 µM [falling, partial curve, poor fit] | –
14 | COc1cccc(-c2cc(C(F)(F)F)nc(-n3cccn3)n2)c1 | 13 µM [falling, partial curve, poor fit] | –
15 | Cc1ccc(C2N(c3ccc(Cl)c(Cl)c3)C(=O)C3CCCN32)o1 (stereo not given) | 2.31 µM [rising, partial curve, poor fit] | –
16 | COc1cccc(CC(=O)n2nc(N)c3cc4ccc(OC)cc4nc32)c1 | 0.146 µM [falling, full curve] | 0.103 µM [rising, full curve, poor fit]
17 | CSc1nsc(SCC(=O)Nc2ccccc2F)n1 | 3.98 µM [falling, partial curve] | –
18 | COc1ccccc1OCCn1nnc2ccccc21 | 2.51 µM [rising, partial curve, poor fit] | –
19 | CCOc1ccc(S(=O)(=O)NCc2ccccn2)cc1NC(=O)c1ccccc1 | 29.1 µM [rising, single point] | 18.4 µM [falling, single point]
20 | O=C(CSc1ncn[nH]1)Nc1nnc(-c2ccccc2)s1 | 1.46 µM [falling, partial curve] | 23.1 µM [falling, partial curve, poor fit]

Row | SMILES | AC50 [1] | AC50 [2]
21 | COc1ccc2c(c1)CCc1cc(C(=O)N3CCN(c4ccc(N5CCOCC5)nn4)CC3)sc1-2 | 32.6 µM [falling, single point] | –
22 | Cc1ccc(NC(=O)C2CC3CCC2C3)c(Br)c1 (stereo not given) | 10 µM [rising, partial curve] | –
23 | CCOC(=O)c1ccc(NC(=S)NC(=O)C2CCCC2)cc1 | 10 µM [rising, partial curve, poor fit] | –
24 | CCc1ccccc1NC(=O)CN1CCN(C(=O)CCC(=O)N2CCC(c3ccccc3)=N2)CC1 | 32.6 µM [rising, partial curve, poor fit] | –
25 | CCOc1ccccc1NC(=O)Cc1coc2cc(C)ccc12 | 0.092 µM [falling, full curve, poor fit] | –
26 | Cc1ccccc1NC(=S)N/N=C1\CC(C)(C)Oc2ccc(O)cc21 | 35.5 µM [falling, single point] | –
27 | CCn1c(SCC(=O)Nc2nccs2)nnc1-c1ccc(S(=O)(=O)N2CCCCCC2)cc1 | 20.6 µM [falling, single point] | –
28 | CN(C)C(=S)N=Nc1[nH]c2ccccc2c1O | 5.62 µM [falling, single point] | 3.98 µM [falling, full curve]
29 | Cc1cc(-c2ccccc2)c2c(=O)[nH][nH]c2n1 | 32.6 µM [falling, single point] | 23.1 µM [rising, partial curve, poor fit]
30 | Cc1ccc(S(=O)(=O)NC2=NCN(CCOC(=O)c3ccccc3)CN2)cc1 | 4.11 µM [rising, partial curve, poor fit] | –
31 | CCCC(=O)OCCNc1cc(Sc2nc3ccccc3[nH]2)c2nonc2c1[N+](=O)[O-] | 29.1 µM [falling, single point] | 32.6 µM [rising, single point]
32 | CCS(=O)(=O)NCCNc1ccc([N+](=O)[O-])cc1 | 35.5 µM [rising, single point] | –
33 | COC(=O)c1sc(NC(=O)CSc2n[nH]c(N)n2)c(C(=O)OC)c1C | 10 µM [falling, partial curve, poor fit] | –
34 | CCOC(=O)c1cccc(NC(=O)Nc2ccc(OCC)cc2)c1 | 35.5 µM [falling, single point] | –
35 | Cc1ccc(-c2cc(C(=O)N3CCN(c4ccccc4)CC3)c3ccccc3n2)cc1C | 0.251 µM [rising, full curve, poor fit] | –
36 | Cc1cc(C(C)(C)C)cc(C)c1Cn1c2[n+](c3ccc(C(F)(F)F)cc31)CCCCC2 | 20 µM [falling, single point] | –
37 | O=C(NCCCN1CCOCC1)c1ccc2c(c1)N(Cc1cccc(F)c1)C(=O)c1ccccc1S2 | 20 µM [falling, partial curve, poor fit] | –
38 | CCSc1nnc(NC(=O)C(C)C)s1 | 32.6 µM [falling, single point] | –
39 | O=C(Nc1ccncc1)c1cc2ccccc2o1 | 10 µM [falling, partial curve] | –

Two of the compounds above, as labelled records:
CCS(=O)(=O)NCCNc1ccc([N+](=O)[O-])cc1
  AC50 [1]: 35.5 µM [rising, single point]
COC(=O)c1sc(NC(=O)CSc2n[nH]c(N)n2)c(C(=O)OC)c1C
  AC50 [1]: 10 µM [falling, partial curve, poor fit]
